According to PubChem BioAssay AID1508600 (Functional Genomics Laboratory (NCATS/FGL), 2020):
Out of some 53,000 sequences screened, about 3,700 (7%) were called active.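 The calls were made as follows: active = gene knockdowns whose robust z-score for IL-1 alpha signal is at least 2 or at most -2, so actives lie on both sides; inactive = the rest.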 Some of the results follow.

Assay: Components of the Cytosolic LPS Sensing Pathway: Gene Identification via Genome-wide siRNA Screen;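 also: robust z of the log signal after scaling to non-targeting control siRNA wells of the plate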
Conditions: RAW264.7 macrophages, IL-1a HTRF, actives lie on both sides, screened at 100 nM (by protocol), cells primed 5 h with Pam3CSK4 first
In short: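 Knockdown: 100 nM siRNA, 48h, RAW264.7. Stimulation: Pam3CSK4 5 h, then LipidA via TransIT-TKO 24 h. Output: supernatant IL-1a HTRF, negative-control-normalized, log robust z-score; viability by CellTiter-Glo.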

Sequence | z-score
GGUUGUAUGUUGUGUGUUUTT against Cyrib | active: 2.36
GUCCCAACUCCGCUUUGUUTT against Vmn1r38 | inactive: 1.01
GGAGACUUCAGUGCCUCUUTT against Slc16a11 | active: 2.45
GGAUUACACACCUACGAUCTT against Taf10 | inactive: -1.63
GGCCAGAGAAGAUUACUUUTT against Ajuba | inactive: 1.03
GGUAUUAUGACUGUAAAGGTT against Endou | inactive: 0.0412
CCAAUUUUACCUGACUUCGTT against Enox2 | inactive: -0.222
GCUGUCUUUUAUGCAAGCATT against Klf9 | inactive: 0.466
GGGCCAAACCCAGAACUAUTT against Sema4g | inactive: 1.5
GGCCGAUUGUGAUGAAUUCTT against Depdc1b | inactive: 0.753
GCCAUAUGGUGAAGUCCUATT against Suz12 | inactive: 0.117
GCCUGGAUUUAAUUUAUGGTT against Sv2a | inactive: -0.3
GGGACUGUCCUUUUUGAAATT against Unc119 | inactive: -0.487
GGUUGUGACCGCCAUUUCUTT against Adpgk | inactive: 1.49
GGCUAAACACAGAAAGGUCTT against Ccdc40 | inactive: 0.172
GAUUAAUAGUGGUUUCUGATT against Olfr1219 | inactive: -0.219
GCCUUCUGAUAACCUACUATT against Mefv | inactive: -1.87
GGAAUUGAACGUAGUAGAGTT against Ciao2b | inactive: 0.267
GGUGUUUGGCUACCAUACCTT against Atp13a5 | inactive: -0.271
GGGAUGGAAGACGUACAGATT against Alox12e | inactive: 0.673
GGGAUACCAUUAAUUAAAGTT against Armh4 | inactive: -1.2
UACCCUAGGUCGACUCUCATT against Fcmr | inactive: -1.48

Sequence | z-score
GGACUUGUUAUGGCCAUGCTT against Olfr1389 | inactive: 0.284
GGAGGAAGACAUUGUGUGUTT against Tnfrsf11b | inactive: -0.309
GCACCAGUUACAGAAUGGATT against Zkscan8 | inactive: 0.873
GGGCAAUGUGUUUAUGUAUTT against Tmem30a | inactive: -0.264
GGUAAACCUUUCUACCUUATT against Cxcr2 | inactive: 0.675
GGACUUUGAUAUCAAAGAGTT against Serpina10 | inactive: -0.778
CCUACCCUAACCAUUACACTT against Enpp5 | inactive: -0.267
GGUUUAUAUCCGUACACCUTT against Sp2 | inactive: 1.97
GGAAUUUGGAGCCGACUGCTT against Mdk | inactive: -1.38
CCUAUGAGAAAUGCUGCCCTT against Wfikkn2 | inactive: 0.637
CGUUCAACAACAGAGAAAATT against Scnn1g | inactive: -0.305
GCAUGUGACCUCGUCUUGCTT against Apbb2 | inactive: -1.04
GGAUAUUGUCUUUGUAGAATT against Kap | inactive: -0.565
GAGUGGAACCAGAUUCCUCTT against AY074887 | inactive: -0.4
GGAUUUUUGCCAGUUAGUATT against Nus1 | inactive: 0.501
CCUGACUUCCCGCUAUGAGTT against Ip6k2 | inactive: 0.56
GGAGAUUCAGUUCUUCAAUTT against Ndst2 | inactive: 1.1
GGCUCAUAAACGACAAAGGTT against Cxcl11 | inactive: -1.42
GGUCAAAUCUCAGAUGAAGTT against Kcnab1 | inactive: 0.917
GCCGAUCCAUUUUUGGCUCTT against Mlxip | inactive: 0.86
GGAGUUUGAAGACUUUUUGTT against Pstpip2 | inactive: 0.24
GGCAUGUGAAAUGUAUACCTT against Napb | inactive: 1.25

Sequence | z-score
GGUCACCUCUGCUAACAUCTT against Bpifb1 | inactive: -0.765
GAAGGAAGAAUAUUGGCCCTT against Il17rd | inactive: -1.88
GGCUUCUGGUACAUUAUUGTT against Lcn10 | inactive: -1.23
GCUGUAUUGAAGGUCCCUUTT against Olfr744 | inactive: 0.263
CCAUCUACCAUAAACUGUATT against Spata6 | inactive: 0.175
GGUAGCUGAAGAUGGAGAGTT against Abcc10 | inactive: 0.965
GGAGUUAGAAACUCAUUUUTT against Ppargc1b | inactive: 1.5
CCAAGCAUUAUGAGAUGCUTT against Sec23b | inactive: 0.749
GGCAGACAUUGCAUUUCUCTT against Coch | inactive: -0.654
GGCUGUUCGUAAUAACCGCTT against Nup85 | inactive: -0.554
GGAGUUCUUUUAUGAUAUCTT against Rph3a | inactive: 0.276
CCACAGUGGAUUGAUUGUATT against Nlrp4c | inactive: -1.5
GGUCUUCCUGUCUGAAAUATT against Dock7 | inactive: 1.82
GCUUCUAUUGCCAACAUUGTT against Tcp1 | inactive: 0.247
CCCGGGUUGGGUGUACAUUTT against Sds | active: 3.62
CCAGUUGACAGGUUUGAUCTT against Habp4 | inactive: -0.255
GGCUCUAGGAUUCAAAUAUTT against Grid1 | inactive: 1.21
GGCAACUAACAGGAAAAAGTT against 4430402I18Rik | inactive: -0.896
GGAAACACAAGUUCUAGGUTT against Gpx3 | inactive: 0.735
CCAUGUUUUUAUAGCUCUUTT against Sidt2 | inactive: 1.49
GGGAAAUGUGUGUUAUCUGTT against Rnf126 | inactive: 1.41
GCUCCAUCAGCAAUACAAATT against Kdm1a | inactive: 1.51

Sequence | z-score
GGUGCUUUGUAAACUGUCUTT against Slc26a11 | active: -2.99
GGUGCUAAGCUAGACAUUCTT against Mib1 | inactive: -0.161
GCUCUCUACGAUGAGGUCATT against Dera | inactive: 0.42
GCCCAACUAAGCAAUAAUATT against Fam216b | inactive: 0.395
GCUGUUUCCUGAACAAUUCTT against Tram1 | inactive: -1.31
GGAUGCAGUUCAUGACAAUTT against Ythdf1 | inactive: -1.17
GGACAUGAUCAAUGAAGUATT against Calm2 | inactive: -1.37
CGUUGGUCUUCACUGAUAATT against Frem2 | inactive: 0.558
GGCCAUUUUAAAUGGGUCATT against Stx16 | inactive: -1.44
GCCCUAAAUCCUUUUAUUATT against Trpc7 | active: 2.78
GGAGCACUUGUGGAUCAAUTT against Efhd1 | inactive: 1.03
GGAGGUUUCCUUAGGCAAATT against Drd5 | inactive: 1.23
CCUUGACAGGACUAUAUUUTT against Pter | inactive: -0.452
GGAAAAACAUUCAAGACUCTT against Cenpk | inactive: -0.0252
GGAGCAGAAUGGAGUGCAGTT against Slc6a3 | inactive: 1.69
GGCUGAACAGGCAUGAUCATT against Rpap1 | active: -3
GGCACAAUUGAUCCUUUUUTT against Syt17 | inactive: -0.0431
GGAGGUGUCGGGAUAUCAATT against Ptprm | inactive: -0.248
GUUGAUGGAAACCAUGGAATT against Phf11d | inactive: -0.504
CGAUGUUUUCAUGAACGACTT against Tctex1d2 | inactive: 0.738
GGGUUAGGAUACCUCGACUTT against Arnt2 | active: -2.5
GGCUGUGGUUGUAUCAUGATT against Scgb2b24 | inactive: -0.13

No new results follow: an excerpt of the list.
Sequence | z-score
GGAGGAAGACAUUGUGUGUTT against Tnfrsf11b | inactive: -0.309
GCACCAGUUACAGAAUGGATT against Zkscan8 | inactive: 0.873
GGGCAAUGUGUUUAUGUAUTT against Tmem30a | inactive: -0.264

An excerpt of these results, comma-delimited.
Sequence,z-score
GGUGCUAAGCUAGACAUUCTT against Mib1,inactive: -0.161
GGAUGCAGUUCAUGACAAUTT against Ythdf1,inactive: -1.17
GGACAUGAUCAAUGAAGUATT against Calm2,inactive: -1.37
CGUUGGUCUUCACUGAUAATT against Frem2,inactive: 0.558
GGCUGAACAGGCAUGAUCATT against Rpap1,active: -3
GGAGGUGUCGGGAUAUCAATT against Ptprm,inactive: -0.248

Carrying on.

Sequence | z-score
GCAAGAAUCUGCUCUUAGUTT against Tmem164 | inactive: -0.019
GGGAUCAGACUGUAUAGACTT against Chchd4 | inactive: 1.07
GGAUGACCAAAAGGACAAUTT against Galp | inactive: 1.09
GGCAUUUAGCCAAAAGUUCTT against Zfp169 | inactive: 0.608
GGUUAUGAAACUGAGAAAGTT against Mid2 | inactive: -0.0195
CCAGAGCUACCAAAGUCUATT against Krt39 | inactive: -0.625
GGAAACAAAUGAGUGCCUGTT against Bloc1s5 | active: 2.02
CCAGAGAAAUAUCGACAAGTT against Rasgrf1 | inactive: 0.00204
GGAAGAAGCCUUUUGAGUGTT against Peg3 | inactive: 1.39
GCCUUGAUACAGAACAUGATT against Btbd16 | inactive: -0.254
GGCACCUGAGGGAACUAAGTT against Atp1a2 | inactive: 1.48
CGUAUCUGUUCAGCUGUACTT against Trappc9 | inactive: -0.067
CCUCUCAGAUUUUCACAUATT against Zfp599 | inactive: 1.36
GGACUUGCUAAGAGACCAATT against Cntn2 | active: 4.74
GGAACCAUCUUCAACCAACTT against Eme1 | inactive: -1.44
GCCAACCAUCAGUUUAUACTT against Mboat1 | inactive: -0.31
GGGAUUCUUUUUGUGGAAATT against Trim62 | inactive: 0.636
GGAAUAAGGCGAGUUGGAATT against Serbp1 | inactive: 0.493
GGAUUAGGAAUCACAGUAGTT against Fam78a | inactive: 0.675
GCCCGGAAUCUGUCUAAACTT against Btg2 | inactive: 1.24
